Laboratory results reported in paper PMC8384837.
Changes are numbered by the printed parent chain. The list shows a part of the results.

Experiments:
Conditions in all cases: yeast three-hybrid, YBZ-1, SC-Leu-His + 0.5 mM 3-AT, 4 days
[1] = target: T1, PUM1 PUF domain R6-AFR N1043A + Y1044F + Q1047R (Homo sapiens) (UniProt Q14671)
T1 sequence: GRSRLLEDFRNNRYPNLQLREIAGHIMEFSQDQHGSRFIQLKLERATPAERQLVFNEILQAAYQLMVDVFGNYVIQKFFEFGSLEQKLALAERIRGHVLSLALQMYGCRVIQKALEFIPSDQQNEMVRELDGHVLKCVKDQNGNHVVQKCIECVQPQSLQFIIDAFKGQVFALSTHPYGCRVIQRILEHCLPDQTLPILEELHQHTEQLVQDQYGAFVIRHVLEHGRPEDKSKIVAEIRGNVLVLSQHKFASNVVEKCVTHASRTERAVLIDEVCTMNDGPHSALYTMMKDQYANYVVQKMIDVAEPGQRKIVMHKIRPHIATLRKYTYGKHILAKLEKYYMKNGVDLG

[2] = target: T2, PUM1 PUF domain R6-FRI N1043F + Y1044R + Q1047I (Homo sapiens) (UniProt Q14671)
T2 sequence: T1 sequence with A216F, F217R, R220I

[3] = target: T3, PUM1 PUF domain R6-FRL N1043F + Y1044R + Q1047L (Homo sapiens) (UniProt Q14671)
T3 sequence: T1 sequence with A216F, F217R, R220L

[4] = target: T4, PUM1 PUF domain R6-FYL N1043F + Q1047L (Homo sapiens) (UniProt Q14671)
T4 sequence: T1 sequence with A216F, F217Y, R220L

[5] = target: T5, PUM1 PUF domain R6-GFA N1043G + Y1044F + Q1047A (Homo sapiens) (UniProt Q14671)
T5 sequence: T1 sequence with A216G, R220A

[6] = target: T6, PUM1 PUF domain R6-GFS N1043G + Y1044F + Q1047S (Homo sapiens) (UniProt Q14671)
T6 sequence: T1 sequence with A216G, R220S

[7] = target: T7, PUM1 PUF domain R6-GWI N1043G + Y1044W + Q1047I (Homo sapiens) (UniProt Q14671)
T7 sequence: T1 sequence with A216G, F217W, R220I

[8] = target: T8, PUM1 PUF domain R6-GWM N1043G + Y1044W + Q1047M (Homo sapiens) (UniProt Q14671)
T8 sequence: T1 sequence with A216G, F217W, R220M

[9] = target: T9, PUM1 PUF domain R6-GYQ N1043G (Homo sapiens) (UniProt Q14671)
T9 sequence: T1 sequence with A216G, F217Y, R220Q

[10] = target: T10, PUM1 PUF domain R6-HFS N1043H + Y1044F + Q1047S (Homo sapiens) (UniProt Q14671)
T10 sequence: T1 sequence with A216H, R220S

[11] = target: T11, PUM1 PUF domain R6-LYG N1043L + Q1047G (Homo sapiens) (UniProt Q14671)
T11 sequence: T1 sequence with A216L, F217Y, R220G

[12] = target: T12, PUM1 PUF domain R6-NFC Y1044F + Q1047C (Homo sapiens) (UniProt Q14671)
T12 sequence: T1 sequence with A216N, R220C

[13] = target: T13, PUM1 PUF domain R6-QFR N1043Q + Y1044F + Q1047R (Homo sapiens) (UniProt Q14671)
T13 sequence: T1 sequence with A216Q

[14] = target: T14, PUM1 PUF domain R6-RFG N1043R + Y1044F + Q1047G (Homo sapiens) (UniProt Q14671)
T14 sequence: T1 sequence with A216R, R220G

[15] = target: T15, PUM1 PUF domain R6-RFI N1043R + Y1044F + Q1047I (Homo sapiens) (UniProt Q14671)
T15 sequence: T1 sequence with A216R, R220I

[16] = target: T16, PUM1 PUF domain R6-RYL N1043R + Q1047L (Homo sapiens) (UniProt Q14671)
T16 sequence: T1 sequence with A216R, F217Y, R220L

[17] = target: T17, PUM1 PUF domain R6-SFS N1043S + Y1044F + Q1047S (Homo sapiens) (UniProt Q14671)
T17 sequence: T1 sequence with A216S, R220S

[18] = target: T18, PUM1 PUF domain R6-SWR N1043S + Y1044W + Q1047R (Homo sapiens) (UniProt Q14671)
T18 sequence: T1 sequence with A216S, F217W

[19] = target: T19, PUM1 PUF domain R6-SYA N1043S + Q1047A (Homo sapiens) (UniProt Q14671)
T19 sequence: T1 sequence with A216S, F217Y, R220A

[20] = target: T20, PUM1 PUF domain R6-WYR N1043W + Q1047R (Homo sapiens) (UniProt Q14671)
T20 sequence: T1 sequence with A216W, F217Y

GGCUAGAACUAGUGGAUCCCCCGGCGCCCGGCGGCUCGAGCCCGGGUAAGUGAAAAUAGUCUGCAUGCCGCCGGGCGCCAUGCCUGCAGGUCGACUCUAGAAAACAUG
binding signal (log2 enrichment (interaction score)) [1]: -1.36
binding signal (log2 enrichment (interaction score)) [2]: -1.41
binding signal (log2 enrichment (interaction score)) [3]: -1.79
binding signal (log2 enrichment (interaction score)) [4]: -0.44
binding signal (log2 enrichment (interaction score)) [5]: -0.74
binding signal (log2 enrichment (interaction score)) [6]: -1.68
binding signal (log2 enrichment (interaction score)) [7]: -1.77
binding signal (log2 enrichment (interaction score)) [8]: -1.32
binding signal (log2 enrichment (interaction score)) [9]: -1.41
binding signal (log2 enrichment (interaction score)) [10]: -1.66
binding signal (log2 enrichment (interaction score)) [11]: -0.33
binding signal (log2 enrichment (interaction score)) [12]: -1.29
binding signal (log2 enrichment (interaction score)) [13]: -1.89
binding signal (log2 enrichment (interaction score)) [14]: -0.46
binding signal (log2 enrichment (interaction score)) [15]: -0.77
binding signal (log2 enrichment (interaction score)) [16]: -1.04
binding signal (log2 enrichment (interaction score)) [17]: -0.58
binding signal (log2 enrichment (interaction score)) [18]: -0.44
binding signal (log2 enrichment (interaction score)) [19]: -0.61
binding signal (log2 enrichment (interaction score)) [20]: -0.26
